Data as given in article PMC11146434, “Mitigation of TDP-43 toxic phenotype by an RGNEF fragment in amyotrophic lateral sclerosis models” (Brain, 2023).
Results are given in words; binding and its absence hold for the method and conditions named. For some of these results: Binding seen in cells or lysates may run through a third protein. Some results given as binding are weak or reduced against the parent protein; the word gives no strength. For some of these results: Sequences can lack the tags named with a protein.

By UniProt entry, the sequences of proteins in these tests, tags left out. Where a name states a change or a piece, a line headed by the entry shows the natural chain unless it says otherwise.
UniProt Q13148: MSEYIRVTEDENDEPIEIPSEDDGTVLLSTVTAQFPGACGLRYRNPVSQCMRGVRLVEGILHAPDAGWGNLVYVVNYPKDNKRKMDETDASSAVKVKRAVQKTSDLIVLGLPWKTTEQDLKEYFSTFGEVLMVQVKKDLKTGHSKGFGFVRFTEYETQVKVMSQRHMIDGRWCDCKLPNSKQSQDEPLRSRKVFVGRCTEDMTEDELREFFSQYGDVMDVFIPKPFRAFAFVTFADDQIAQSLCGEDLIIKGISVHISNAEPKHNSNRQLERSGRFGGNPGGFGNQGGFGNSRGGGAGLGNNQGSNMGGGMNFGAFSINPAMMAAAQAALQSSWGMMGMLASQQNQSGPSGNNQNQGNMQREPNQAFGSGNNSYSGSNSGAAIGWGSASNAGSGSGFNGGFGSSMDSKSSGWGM

Legend:
His-MBP-RGNEF^1–275 [1] = target: T1, His-MBP-RGNEF^1–275 (human, UniProt Q8N1W1 1-275); test: SPR; His-MBP-RGNEF^1–275 amine-coupled on a carboxymethyl dextran chip; TDP-43 fragments as analytes; 1× PBS, 0.1% Tween-20; 22°C; both purified
T1 construct: Detailed purification protocol is in the Supplementary Methods; also called His-NF242; NF242 (in the SPR experiments); source: E. coli, purified (Ni-IMAC); not shown: MBP, N-terminal, kept
T1 sequence (looked up): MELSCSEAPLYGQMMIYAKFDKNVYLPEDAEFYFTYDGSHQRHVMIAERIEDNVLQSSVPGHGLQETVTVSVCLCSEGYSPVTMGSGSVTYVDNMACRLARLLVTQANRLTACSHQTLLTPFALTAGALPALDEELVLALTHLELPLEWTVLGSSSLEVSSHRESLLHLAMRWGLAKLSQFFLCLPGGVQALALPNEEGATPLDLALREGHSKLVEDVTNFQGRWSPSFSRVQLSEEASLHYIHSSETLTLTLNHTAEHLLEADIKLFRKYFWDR

His-MBP-RGNEF^1–275 [2] = target: T1, His-MBP-RGNEF^1–275; test: SPR; TDP-43^101–261 with or without the F4L mutations against NF242 (Supplementary Fig. 6A and B); buffer not stated; both purified
[3] = target: T2, NF242-Δ77–79_P81G (human) (UniProt Q8N1W1); test: split reporter; NanoBiT (Promega) in living HEK293T cells, LgBiT and SmBiT fusions, luciferase read 48 h after transfection with Nano-Glo Live Cell Assay
T2 sequence: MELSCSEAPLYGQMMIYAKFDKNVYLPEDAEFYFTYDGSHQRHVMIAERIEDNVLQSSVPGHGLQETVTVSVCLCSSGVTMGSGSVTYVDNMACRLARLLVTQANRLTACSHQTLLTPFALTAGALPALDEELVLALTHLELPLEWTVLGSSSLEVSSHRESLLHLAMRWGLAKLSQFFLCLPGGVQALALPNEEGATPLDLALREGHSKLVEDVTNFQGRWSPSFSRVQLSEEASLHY

binding (His-MBP-RGNEF^1–275 [1])	Substance	further results
binds weakly	His-RRM-2 (from UniProt Q13148 177-262) (domain or fragment)	
no binding	His-TDP-43^1–102 (from UniProt Q13148 1-102) (domain or fragment)	
	His-TDP-43^101–261 (from UniProt Q13148 101-261) (domain or fragment)	binding (His-MBP-RGNEF^1–275 [2]): binds
	TDP-43^wt with the luciferase subunit fused to its C-terminal end (from UniProt Q13148 1-414)	binding [3]: no binding
